PubChem BioAssay AID248 (DTP/NCI, 2004)
The list does not hold the whole screen: it gathers tests that were run many times, whatever their T/C, doses with no T/C, and many T/C values between a quarter and a half above the control. Other doses and runs of a compound stand elsewhere. T/C is the treated group as % of the vehicle group. Some doses have a count of surviving animals in place of a T/C: the source holds a T/C of zero for them, seemingly a mark for toxic or unscored doses. Some doses without a T/C left all or most animals alive at the check, yet need not have been tolerated: survival well below the control is almost never listed, so the zero probably covers shortened survival too. Survivors were counted at the toxicity check, usually on the fifth day, unless a day is given; later deaths do not show. Schedules are NCI's codes, read here as Q, the interval in days (D) or hours (H), X, the number of doses. Some doses were run more than once; the results are listed from low to high. Some schedule codes hold Z or #, which are not explained here. For survival time, this PubChem deposit counts one and a half times the control or more as active, and values a quarter to a half above the control carry no call in these data; other NCI protocols may use other cut-offs. Some T/C values carry the count of animals alive at the toxicity check (mostly the fifth day); where none is given, no animal had died by that day.

Tested on: L1210 leukemia ip in BDF1 mice, survival T/C
Assay: NCI In Vivo Anticancer Drug Screen. Data for tumor model L1210 Leukemia (intraperitoneal) in B6D2F1 (BDF1) mice
Conditions: higher T/C = longer survival
[1] = T/C endpoint: mean survival time, dose: 100.0 mg/kg/injection, schedule: Q01DX009 (ip), vehicle: Klucel (hydroxypropylcellulose) (HPC)
[2] = T/C endpoint: mean survival time, dose: 200.0 mg/kg/injection, schedule: Q01DX009 (ip), vehicle: Klucel (hydroxypropylcellulose) (HPC)
[3] = T/C endpoint: mean survival time, dose: 400.0 mg/kg/injection, schedule: Q01DX009 (ip), vehicle: Klucel (hydroxypropylcellulose) (HPC)
[4] = T/C endpoint: mean survival time, dose: 30.0 mg/kg/injection, schedule: Q01DX001 (ip), vehicle: carboxymethylcellulose (CMC)
[5] = T/C endpoint: mean survival time, dose: 60.0 mg/kg/injection, schedule: Q01DX001 (ip), vehicle: carboxymethylcellulose (CMC)
[6] = T/C endpoint: mean survival time, dose: 400.0 mg/kg/injection, schedule: Q04DX003 (ip), vehicle: saline with Tween-80
[7] = T/C endpoint: mean survival time, dose: 400.0 mg/kg/injection, schedule: Q04DX002 (ip), vehicle: other
[8] = T/C endpoint: mean survival time, dose: 400.0 mg/kg/injection, schedule: Q01DX009 (ip), vehicle: saline with Tween-80

With `[Cl][Sn]([c]1ccccc1)([c]1ccccc1)[c]1ccccc1` the survivor count (T/C endpoint: mean survival time, dose: 2.5 mg/kg/injection, schedule: Q01DX009 (ip), vehicle: Klucel (hydroxypropylcellulose) (HPC)) was 2 of 6, the survivor count (T/C endpoint: mean survival time, dose: 10.0 mg/kg/injection, schedule: Q01DX009 (ip), vehicle: Klucel (hydroxypropylcellulose) (HPC)) was 0 of 6 and 3 of 6 and the survivor count (T/C endpoint: mean survival time, dose: 20.0 mg/kg/injection, schedule: Q04DX003 (ip), vehicle: Klucel (hydroxypropylcellulose) (HPC)) was 3 of 6 and 6 of 6. For the same molecule, the survivor count (T/C endpoint: mean survival time, dose: 40.0 mg/kg/injection, schedule: Q04DX003 (ip), vehicle: Klucel (hydroxypropylcellulose) (HPC)) was 0 of 6, the survivor count (T/C endpoint: mean survival time, dose: 80.0 mg/kg/injection, schedule: Q01DX001 (ip), vehicle: saline) was 0 of 4 and the survivor count (T/C endpoint: mean survival time, dose: 80.0 mg/kg/injection, schedule: Q04DX003 (ip), vehicle: Klucel (hydroxypropylcellulose) (HPC)) was 0 of 6.
With `CCCCNC(=O)Oc1c(Cl)cc(Cl)c(Cl)c1[N+](=O)[O-]` the survivor count [1] was 6 of 6, the survivor count [2] was 3 of 6 and the survivor count [3] was 0 of 6.
In the case of `O=C(N1CCCCC1)C(Cl)(Cl)Cl`, the survivor count [2] is reported as 3 of 3 and the survivor count (T/C endpoint: mean survival time, dose: 400.0 mg/kg/injection, schedule: Q04DX002 (ip), vehicle: Klucel (hydroxypropylcellulose) (HPC)) is reported as 3 of 3.
`O=C1CC(=O)C(Cl)=C1Cl` was tested, and the survivor count [4] was 2 of 6, the survivor count [5] was 0 of 6 and the survivor count (T/C endpoint: mean survival time, dose: 75.0 mg/kg/injection, schedule: Q01DX001 (ip), vehicle: carboxymethylcellulose (CMC)) was 0 of 6. The survivor count (T/C endpoint: mean survival time, dose: 150.0 mg/kg/injection, schedule: Q01DX001 (ip), vehicle: carboxymethylcellulose (CMC)) was 0 of 6 and the survivor count (T/C endpoint: mean survival time, dose: 300.0 mg/kg/injection, schedule: Q01DX001 (ip), vehicle: carboxymethylcellulose (CMC)) was 0 of 6.
With `COC(=O)c1ccccc1N=NN(C)C` the survivor count (T/C endpoint: mean survival time, dose: 400.0 mg/kg/injection, schedule: Q01DX001 (ip), vehicle: carboxymethylcellulose (CMC)) was 0 of 4 and the survivor count (T/C endpoint: median survival time, dose: 500.0 mg/kg/injection, schedule: Q01DX001 (ip), vehicle: steroid suspending solution) was 0 of 8.
With `Cc1[nH]c(C(=O)OCc2ccccc2)c(C)c1C(=O)OCc1ccccc1` the survivor count (T/C endpoint: mean survival time, dose: 100.0 mg/kg/injection, schedule: Q01DX001 (ip), vehicle: saline with Tween-80) was 2 of 6.
`O=C(Sc1ccccc1)C(Cl)(Cl)Cl` was tested, and the survivor count (T/C endpoint: mean survival time, dose: 150.0 mg/kg/injection, schedule: Q01DX009 (ip), vehicle: acetone) was 5 of 6, the survivor count (T/C endpoint: mean survival time, dose: 200.0 mg/kg/injection, schedule: Q04DX003 (ip), vehicle: saline) was 6 of 6 and the survivor count (T/C endpoint: mean survival time, dose: 225.0 mg/kg/injection, schedule: Q01DX009 (ip), vehicle: acetone) was 0 of 6. The survivor count (T/C endpoint: mean survival time, dose: 335.0 mg/kg/injection, schedule: Q01DX009 (ip), vehicle: acetone) was 0 of 6 and the survivor count (T/C endpoint: mean survival time, dose: 400.0 mg/kg/injection, schedule: Q01DX001 (ip), vehicle: acetone) was 0 of 6.
`CN(C)Cc1cc(O)c(CN(C)C)cc1O` was tested, and the survivor count (T/C endpoint: mean survival time, dose: 100.0 mg/kg/injection, schedule: Q01DX009 (ip), vehicle: saline with Tween-80) was 3 of 6.
With `c1ccc(Sc2cccc3c(-c4ccccc4)c4cccc5c4c(c23)C[S+]5c2ccccc2)cc1` (centres undefined) the survivor count (T/C endpoint: mean survival time, dose: 100.0 mg/kg/injection, schedule: Q04DX003 (ip), vehicle: saline with Tween-80) was 5 of 6, the survivor count (T/C endpoint: mean survival time, dose: 200.0 mg/kg/injection, schedule: Q04DX003 (ip), vehicle: saline with Tween-80) was 0 of 6 and the survivor count [6] was 0 of 6.
For `CCCCCCCCCCCCCCCC1CCCC(C)N1` (centres undefined), the survivor count (T/C endpoint: mean survival time, dose: 50.0 mg/kg/injection, schedule: Q04DX002 (ip), vehicle: saline with Tween-80) was 1 of 3.
In the case of `CCC1CCC(NC(=O)NCCF)CC1` (centres undefined), the survivor count (T/C endpoint: mean survival time, dose: 150.0 mg/kg/injection, schedule: Q01DX001 (ip), vehicle: other) is reported as 0 of 6 and the survivor count (T/C endpoint: mean survival time, dose: 300.0 mg/kg/injection, schedule: Q01DX001 (ip), vehicle: other) is reported as 0 of 6.
In the case of `COc1cc(/C=N/NC(=O)CN(C)C)cc(OC)c1N(CCCl)CCCl`, the T/C [1] is reported as 129 % of control, the survivor count [2] is reported as 3 of 6 and the survivor count [3] is reported as 0 of 6.
For `N#C/C(=C\c1ccco1)C1CCCCC1`, the survivor count [7] was 1 of 3.
`COC(=O)C(Br)(Br)C(=O)OC` was tested, and the survivor count (T/C endpoint: mean survival time, dose: 100.0 mg/kg/injection, schedule: Q04DX002 (ip), vehicle: saline with Tween-80) was 1 of 3, the survivor count (T/C endpoint: mean survival time, dose: 200.0 mg/kg/injection, schedule: Q04DX002 (ip), vehicle: saline with Tween-80) was 0 of 3 and the survivor count (T/C endpoint: mean survival time, dose: 400.0 mg/kg/injection, schedule: Q04DX002 (ip), vehicle: saline with Tween-80) was 0 of 3.
`CC(=O)[C@H]1CC[C@H]2[C@@H]3CCC4=CC(=O)CC[C@]4(C)[C@H]3CC[C@]12C` was tested, and the survivor count (T/C endpoint: mean survival time, dose: 125.0 mg/kg/injection, schedule: Q01DX Z (sc), vehicle: steroid suspending solution) was 0 of 10, the survivor count (T/C endpoint: mean survival time, dose: 250.0 mg/kg/injection, schedule: Q01DX Z (sc), vehicle: steroid suspending solution) was 0 of 10 and the survivor count (T/C endpoint: mean survival time, dose: 500.0 mg/kg/injection, schedule: Q01DX Z (sc), vehicle: steroid suspending solution) was 0 of 10. For the same molecule, the survivor count (T/C endpoint: mean survival time, dose: 1000.0 mg/kg/injection, schedule: Q01DX Z (sc), vehicle: steroid suspending solution) was 0 of 10.
With `N/C(=N/N=C/c1ccncc1)N/N=C\c1ccncc1` the survivor count (T/C endpoint: mean survival time, dose: 15.0 mg/kg/injection, schedule: Q01DX Z (ip), vehicle: carboxymethylcellulose (CMC)) was 6 of 6 and the survivor count (T/C endpoint: mean survival time, dose: 960.0 mg/kg/injection, schedule: Q01DX Z (oral), vehicle: carboxymethylcellulose (CMC)) was 0 of 6.
For `O=c1sc2ccccc2n1CCSCCn1c(=S)sc2ccccc21`, the survivor count (T/C endpoint: mean survival time, dose: 200.0 mg/kg/injection, schedule: Q01DX001 (ip), vehicle: saline) was 6 of 6.
With `C[N+]1(C)CC2CCCCC1C2O` (centres undefined) the survivor count (T/C endpoint: mean survival time, dose: 300.0 mg/kg/injection, schedule: Q01DX001 (ip), vehicle: saline) was 1 of 6.
`COc1ccc(C(=O)NC[n+]2ccccc2)cc1` was tested, and the survivor count (T/C endpoint: mean survival time, dose: 100.0 mg/kg/injection, schedule: Q01DX009 (ip), vehicle: saline) was 5 of 6.
For `CCCCCCCCCCCCSCO`, the survivor count [8] was 2 of 6 and the survivor count [6] was 1 of 6.
With `CCC(=O)C(c1ccccc1)(c1ccccc1)c1ccccc1` the survivor count [7] was 2 of 3.
`COc1ccc(S(=O)(=O)N=[N+]=[N-])cc1` was tested, and the survivor count (T/C endpoint: mean survival time, dose: 400.0 mg/kg/injection, schedule: Q01DX001 (ip), vehicle: saline) was 3 of 6.
For `COc1cc(O)c2c(c1)C(=O)C1=C(C2=O)C(O)[C@H](O)[C@](C)(O)[C@H]1O` (some centres undefined), the survivor count [1] was 0 of 6, the survivor count [2] was 0 of 6 and the survivor count [3] was 0 of 6.
For `COC(=O)C(c1ccccc1)C1(O)CCN(CC2COc3ccccc3O2)CC1` (centres undefined), the survivor count (T/C endpoint: mean survival time, dose: 200.0 mg/kg/injection, schedule: Q01DX001 (ip), vehicle: Klucel (hydroxypropylcellulose) (HPC)) was 3 of 6 and the survivor count (T/C endpoint: mean survival time, dose: 400.0 mg/kg/injection, schedule: Q01DX001 (ip), vehicle: Klucel (hydroxypropylcellulose) (HPC)) was 0 of 6.
For `C1CCC2CCCCC2C1` (centres undefined), the survivor count (T/C endpoint: mean survival time, dose: 25.0 mg/kg/injection, schedule: Q04DX002 (ip), vehicle: saline) was 3 of 3.
`N#CC1=C(N)CCC(C#N)(c2ccccc2)C1` (centres undefined) was tested, and the survivor count [8] was 1 of 6.
For `CCCCOc1ccc(CC(N)C(=O)O)cc1N(CCCl)CCCl` (centres undefined), the T/C (T/C endpoint: mean survival time, dose: 14.0 mg/kg/injection, schedule: Q01DX001 (ip), vehicle: saline) was 131 % of control, the T/C (T/C endpoint: mean survival time, dose: 15.0 mg/kg/injection, schedule: Q01DX001 (ip), vehicle: carboxymethylcellulose (CMC)) was 134 and 137 % of control and the T/C (T/C endpoint: mean survival time, dose: 20.0 mg/kg/injection, schedule: Q01DX001 (ip), vehicle: saline) was 128 % of control. The T/C (T/C endpoint: mean survival time, dose: 22.5 mg/kg/injection, schedule: Q01DX001 (ip), vehicle: carboxymethylcellulose (CMC)) was 136 % of control, the survivor count [4] was 2 of 6 and the T/C (T/C endpoint: mean survival time, dose: 30.0 mg/kg/injection, schedule: Q01DX001 (ip), vehicle: saline) was 136 % of control. For the same molecule, the survivor count [5] was 0 of 6, the survivor count (T/C endpoint: mean survival time, dose: 75.0 mg/kg/injection, schedule: Q01DX001 (sc), vehicle: carboxymethylcellulose (CMC)) was 0 of 6 and the T/C (T/C endpoint: mean survival time, dose: 120.0 mg/kg/injection, schedule: Q01DX001 (ip), vehicle: saline) was 131 % of control [4 of 6 alive]. The survivor count (T/C endpoint: mean survival time, dose: 150.0 mg/kg/injection, schedule: Q01DX001 (sc), vehicle: carboxymethylcellulose (CMC)) was 0 of 6 and the survivor count (T/C endpoint: mean survival time, dose: 300.0 mg/kg/injection, schedule: Q01DX001 (sc), vehicle: carboxymethylcellulose (CMC)) was 0 of 6.
